Data published in PMC8384840.
Results are given in words; binding and its absence hold for the method and conditions named. Some binding calls cover weakened binding; strength is not graded here.

By UniProt entry, the sequences of proteins in these tests, tags left out. Where a name states a change or a piece, a line headed by the entry shows the natural chain unless it says otherwise. Chains listed by the source or under a name are the forms on record and can include a tag or linker.
UniProt P04792: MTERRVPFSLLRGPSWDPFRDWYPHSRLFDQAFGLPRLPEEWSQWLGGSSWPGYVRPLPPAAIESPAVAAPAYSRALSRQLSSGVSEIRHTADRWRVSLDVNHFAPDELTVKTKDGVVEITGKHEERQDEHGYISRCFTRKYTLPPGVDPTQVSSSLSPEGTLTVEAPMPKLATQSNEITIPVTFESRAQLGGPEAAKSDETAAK
HSPB1-3D-GxG (P04792, form named): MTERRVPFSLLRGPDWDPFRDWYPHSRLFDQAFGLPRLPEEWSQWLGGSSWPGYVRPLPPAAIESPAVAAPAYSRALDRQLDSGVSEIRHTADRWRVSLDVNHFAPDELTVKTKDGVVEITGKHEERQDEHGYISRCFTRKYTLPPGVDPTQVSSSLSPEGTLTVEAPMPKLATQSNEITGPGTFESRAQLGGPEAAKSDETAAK
HSPB1-3D (P04792, form named): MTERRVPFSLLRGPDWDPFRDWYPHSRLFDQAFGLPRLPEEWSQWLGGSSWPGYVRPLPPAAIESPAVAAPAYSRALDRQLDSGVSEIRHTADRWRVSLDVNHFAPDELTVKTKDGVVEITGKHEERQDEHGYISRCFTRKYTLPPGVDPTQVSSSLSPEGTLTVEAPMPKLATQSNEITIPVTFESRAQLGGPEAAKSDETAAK

What was measured:
[1] = target: Firefly luciferase (firefly) [luciferase: P08659]; experiment: SEC; 2 µM luciferase (45 °C) or LDH (55 °C) heat shocked 15 min with 20 µM HSPB1 construct, or the HSPB1 construct heat shocked alone; analysed at the start (0 h) of the disaggregation reaction; Superose 12, reaction buffer, 4 °C; fractions detected by immunoblot; both purified
[2] = target: Firefly luciferase (firefly) [luciferase: P08659]; experiment: dynamic light scattering; 2 µM luciferase or LDH with 20 µM HSPB1 or its mutants, incubated at 45 °C or 55 °C for 15 min in reaction buffer, then measured; both purified
[3] = target: Firefly luciferase (firefly) [luciferase: P08659]; experiment: cross-linking; 2 µM luciferase or LDH at 4 °C or heat shocked (45 °C or 55 °C) without or with HSPB1-3D or HSPB1-3D-GxG; DSS at varying concentrations, 5 min, room temperature; immunoblot for luciferase, LDH and HSPB1; both purified

Substance | binding [1] | binding [2] | binding [3]
HSPB1-3D-GxG (from UniProt P04792 1-205) | no binding (tested: 20 µM HSPB1-3D-GxG with 2 µM luciferase) | – | –
HSPB1-3D (from UniProt P04792 1-205) | – | binds | binds
